Results are given in words; binding and its absence hold for the method and conditions named. Binding seen in cells or lysates may run through a third protein. A yes stands for co-enrichment or nearness to the bait. Other partners may have been found.
Biological target: RNF126 (mouse (endogenous in testis)) (UniProt Q91YL2)
Assay: affinity purification with mass spectrometry; RNF126 immunoprecipitated with antibody on protein A/G magnetic beads from mouse testis lysate (25 mM Tris, 150 mM NaCl, 1 mM EDTA, 1% NP40, pH 7.4), 4 °C overnight; Rnf126+/+ compared with Rnf126-/-; eluate to MS

By UniProt entry, the sequences of proteins in these tests, tags left out.
UniProt Q91YL2: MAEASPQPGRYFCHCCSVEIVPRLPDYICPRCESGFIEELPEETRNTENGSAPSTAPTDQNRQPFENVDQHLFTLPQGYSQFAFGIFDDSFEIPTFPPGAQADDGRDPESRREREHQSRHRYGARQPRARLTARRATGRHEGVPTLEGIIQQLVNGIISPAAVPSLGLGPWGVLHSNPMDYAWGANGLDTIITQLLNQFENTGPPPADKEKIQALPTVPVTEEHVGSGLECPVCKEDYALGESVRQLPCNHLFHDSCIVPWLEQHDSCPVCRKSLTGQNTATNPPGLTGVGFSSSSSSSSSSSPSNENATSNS
UniProt Q9Z1R2: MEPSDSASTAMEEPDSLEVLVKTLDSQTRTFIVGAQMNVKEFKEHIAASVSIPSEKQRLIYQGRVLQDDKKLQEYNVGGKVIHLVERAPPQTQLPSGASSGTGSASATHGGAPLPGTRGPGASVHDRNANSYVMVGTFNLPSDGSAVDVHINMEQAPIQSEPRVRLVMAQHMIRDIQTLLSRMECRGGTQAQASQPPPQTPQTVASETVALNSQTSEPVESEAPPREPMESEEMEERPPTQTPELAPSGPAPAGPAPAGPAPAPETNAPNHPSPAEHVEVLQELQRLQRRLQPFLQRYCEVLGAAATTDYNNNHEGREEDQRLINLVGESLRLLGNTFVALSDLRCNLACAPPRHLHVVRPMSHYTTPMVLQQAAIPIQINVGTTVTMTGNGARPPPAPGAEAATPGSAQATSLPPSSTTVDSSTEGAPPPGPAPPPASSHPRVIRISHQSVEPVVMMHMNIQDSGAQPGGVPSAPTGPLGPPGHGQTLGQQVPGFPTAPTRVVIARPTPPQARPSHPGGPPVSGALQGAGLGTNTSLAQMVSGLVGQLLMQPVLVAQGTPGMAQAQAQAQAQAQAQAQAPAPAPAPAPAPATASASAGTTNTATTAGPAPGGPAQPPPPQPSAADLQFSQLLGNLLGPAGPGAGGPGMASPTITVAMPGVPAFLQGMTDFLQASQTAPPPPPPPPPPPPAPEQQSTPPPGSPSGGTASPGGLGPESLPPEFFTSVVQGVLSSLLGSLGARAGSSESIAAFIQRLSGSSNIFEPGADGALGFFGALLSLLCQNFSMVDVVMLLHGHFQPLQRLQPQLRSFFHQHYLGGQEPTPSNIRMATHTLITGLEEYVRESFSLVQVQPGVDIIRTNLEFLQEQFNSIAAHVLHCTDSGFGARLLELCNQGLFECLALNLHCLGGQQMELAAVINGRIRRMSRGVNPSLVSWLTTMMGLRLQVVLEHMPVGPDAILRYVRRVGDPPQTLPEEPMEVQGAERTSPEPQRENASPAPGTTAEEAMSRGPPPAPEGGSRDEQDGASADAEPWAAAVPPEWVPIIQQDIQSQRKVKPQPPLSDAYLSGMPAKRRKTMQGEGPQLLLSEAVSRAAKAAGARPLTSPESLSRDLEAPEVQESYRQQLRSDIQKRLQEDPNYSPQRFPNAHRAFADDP

For BAG6 (from UniProt Q9Z1R2 1-1154), the binding was “binds”.
